# Test results published in the supplement of paper PMC10849652.
# Protein sequences, listed by entry. Tags and fused reporters are not part of them. Lines headed by an entry give the natural chain unless they say otherwise; changes in a name come on top.
# UniProt P21695: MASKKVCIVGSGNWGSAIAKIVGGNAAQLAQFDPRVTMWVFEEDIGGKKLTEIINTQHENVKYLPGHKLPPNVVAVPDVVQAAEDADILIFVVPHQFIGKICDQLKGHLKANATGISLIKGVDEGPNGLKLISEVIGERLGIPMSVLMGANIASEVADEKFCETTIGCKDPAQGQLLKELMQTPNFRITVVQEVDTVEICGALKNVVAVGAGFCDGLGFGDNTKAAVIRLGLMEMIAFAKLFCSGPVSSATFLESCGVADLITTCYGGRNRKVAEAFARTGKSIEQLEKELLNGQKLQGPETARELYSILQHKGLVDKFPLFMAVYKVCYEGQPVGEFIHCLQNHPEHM
# UniProt Q8NBJ4: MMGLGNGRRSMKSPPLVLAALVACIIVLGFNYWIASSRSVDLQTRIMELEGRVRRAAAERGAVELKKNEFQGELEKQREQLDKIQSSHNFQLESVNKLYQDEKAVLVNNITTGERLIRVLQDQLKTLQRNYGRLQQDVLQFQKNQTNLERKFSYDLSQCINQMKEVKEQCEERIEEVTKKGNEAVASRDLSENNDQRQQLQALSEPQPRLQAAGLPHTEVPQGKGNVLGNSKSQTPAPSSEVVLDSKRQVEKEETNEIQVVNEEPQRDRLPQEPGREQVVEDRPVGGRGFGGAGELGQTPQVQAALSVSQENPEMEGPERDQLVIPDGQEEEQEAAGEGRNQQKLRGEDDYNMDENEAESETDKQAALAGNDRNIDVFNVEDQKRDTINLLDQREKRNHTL
# UniProt Q15743: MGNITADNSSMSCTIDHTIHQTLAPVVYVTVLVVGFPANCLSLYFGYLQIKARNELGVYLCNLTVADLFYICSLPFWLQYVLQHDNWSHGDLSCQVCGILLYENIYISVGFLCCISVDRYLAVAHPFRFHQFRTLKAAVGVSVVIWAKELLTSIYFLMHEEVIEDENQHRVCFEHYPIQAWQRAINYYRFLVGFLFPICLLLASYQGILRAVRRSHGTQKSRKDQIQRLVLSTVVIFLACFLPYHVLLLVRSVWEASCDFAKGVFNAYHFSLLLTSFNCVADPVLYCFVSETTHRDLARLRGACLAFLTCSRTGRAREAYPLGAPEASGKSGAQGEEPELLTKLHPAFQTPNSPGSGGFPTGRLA
# UniProt Q9NPB8: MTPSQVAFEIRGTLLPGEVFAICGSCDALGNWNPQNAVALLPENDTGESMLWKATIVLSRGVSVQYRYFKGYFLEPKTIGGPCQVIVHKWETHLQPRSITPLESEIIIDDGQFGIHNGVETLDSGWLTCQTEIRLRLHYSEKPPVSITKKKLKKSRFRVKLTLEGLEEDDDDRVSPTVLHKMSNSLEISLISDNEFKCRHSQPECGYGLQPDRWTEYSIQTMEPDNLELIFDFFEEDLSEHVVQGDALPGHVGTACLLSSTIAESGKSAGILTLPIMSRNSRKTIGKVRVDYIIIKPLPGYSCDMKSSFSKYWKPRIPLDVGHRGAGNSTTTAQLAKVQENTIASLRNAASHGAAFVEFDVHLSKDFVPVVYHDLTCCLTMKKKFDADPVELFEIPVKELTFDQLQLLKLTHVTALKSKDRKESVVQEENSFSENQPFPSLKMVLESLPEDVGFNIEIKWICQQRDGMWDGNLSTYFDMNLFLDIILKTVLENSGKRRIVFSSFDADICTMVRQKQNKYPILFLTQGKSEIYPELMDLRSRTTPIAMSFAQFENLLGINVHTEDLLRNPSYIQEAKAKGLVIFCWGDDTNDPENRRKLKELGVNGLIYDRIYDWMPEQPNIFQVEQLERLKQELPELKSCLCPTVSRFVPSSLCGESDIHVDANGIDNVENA
# UniProt Q9HCN6: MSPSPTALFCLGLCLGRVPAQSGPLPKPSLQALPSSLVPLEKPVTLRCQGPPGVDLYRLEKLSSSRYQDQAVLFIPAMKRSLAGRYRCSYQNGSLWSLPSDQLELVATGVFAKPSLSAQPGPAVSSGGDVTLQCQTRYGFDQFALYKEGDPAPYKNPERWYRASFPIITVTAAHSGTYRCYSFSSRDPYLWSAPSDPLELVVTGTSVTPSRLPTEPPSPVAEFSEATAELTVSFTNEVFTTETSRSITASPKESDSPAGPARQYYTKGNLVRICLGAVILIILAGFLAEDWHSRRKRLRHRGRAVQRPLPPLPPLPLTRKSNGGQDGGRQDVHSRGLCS
# UniProt Q9BVP2: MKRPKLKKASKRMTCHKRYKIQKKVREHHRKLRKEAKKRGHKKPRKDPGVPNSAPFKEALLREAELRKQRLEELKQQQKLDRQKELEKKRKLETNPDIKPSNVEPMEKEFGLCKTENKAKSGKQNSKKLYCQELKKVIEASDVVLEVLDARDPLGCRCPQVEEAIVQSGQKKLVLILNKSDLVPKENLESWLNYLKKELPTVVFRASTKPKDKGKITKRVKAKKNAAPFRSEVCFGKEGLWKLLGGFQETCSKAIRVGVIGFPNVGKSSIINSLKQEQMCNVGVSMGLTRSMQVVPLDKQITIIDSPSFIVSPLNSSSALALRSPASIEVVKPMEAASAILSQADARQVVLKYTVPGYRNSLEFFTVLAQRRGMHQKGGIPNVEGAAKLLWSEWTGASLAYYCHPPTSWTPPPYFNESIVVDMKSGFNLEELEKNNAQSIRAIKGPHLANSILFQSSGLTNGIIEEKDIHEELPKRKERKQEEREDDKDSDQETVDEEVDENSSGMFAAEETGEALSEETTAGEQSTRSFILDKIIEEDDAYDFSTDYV
# UniProt Q5T7V8: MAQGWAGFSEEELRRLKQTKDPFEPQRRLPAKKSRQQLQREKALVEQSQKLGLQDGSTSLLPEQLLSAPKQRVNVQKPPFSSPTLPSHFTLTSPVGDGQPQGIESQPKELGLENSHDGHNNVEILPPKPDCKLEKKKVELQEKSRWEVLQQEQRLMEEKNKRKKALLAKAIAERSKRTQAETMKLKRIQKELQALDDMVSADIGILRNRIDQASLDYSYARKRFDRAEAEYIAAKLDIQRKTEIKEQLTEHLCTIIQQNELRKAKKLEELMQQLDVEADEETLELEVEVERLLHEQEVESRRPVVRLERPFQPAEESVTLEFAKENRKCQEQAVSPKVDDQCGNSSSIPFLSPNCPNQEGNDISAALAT
# UniProt Q53GS7: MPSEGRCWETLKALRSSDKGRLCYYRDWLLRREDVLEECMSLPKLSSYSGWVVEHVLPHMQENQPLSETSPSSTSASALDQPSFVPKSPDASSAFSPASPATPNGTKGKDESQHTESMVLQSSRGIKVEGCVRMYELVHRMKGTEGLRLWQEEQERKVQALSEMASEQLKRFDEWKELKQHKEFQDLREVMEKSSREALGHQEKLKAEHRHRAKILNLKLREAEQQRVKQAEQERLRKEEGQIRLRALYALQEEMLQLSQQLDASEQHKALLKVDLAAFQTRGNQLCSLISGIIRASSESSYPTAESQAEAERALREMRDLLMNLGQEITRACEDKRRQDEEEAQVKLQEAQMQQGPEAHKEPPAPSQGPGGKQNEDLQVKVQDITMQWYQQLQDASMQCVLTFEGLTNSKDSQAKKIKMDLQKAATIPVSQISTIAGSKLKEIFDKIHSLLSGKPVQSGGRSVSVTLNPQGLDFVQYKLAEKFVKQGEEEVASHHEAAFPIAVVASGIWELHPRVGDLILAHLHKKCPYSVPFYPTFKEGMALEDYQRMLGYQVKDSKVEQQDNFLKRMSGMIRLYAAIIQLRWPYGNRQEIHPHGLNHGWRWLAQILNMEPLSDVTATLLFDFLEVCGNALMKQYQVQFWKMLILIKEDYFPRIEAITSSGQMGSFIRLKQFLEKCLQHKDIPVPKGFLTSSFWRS
# UniProt O94923: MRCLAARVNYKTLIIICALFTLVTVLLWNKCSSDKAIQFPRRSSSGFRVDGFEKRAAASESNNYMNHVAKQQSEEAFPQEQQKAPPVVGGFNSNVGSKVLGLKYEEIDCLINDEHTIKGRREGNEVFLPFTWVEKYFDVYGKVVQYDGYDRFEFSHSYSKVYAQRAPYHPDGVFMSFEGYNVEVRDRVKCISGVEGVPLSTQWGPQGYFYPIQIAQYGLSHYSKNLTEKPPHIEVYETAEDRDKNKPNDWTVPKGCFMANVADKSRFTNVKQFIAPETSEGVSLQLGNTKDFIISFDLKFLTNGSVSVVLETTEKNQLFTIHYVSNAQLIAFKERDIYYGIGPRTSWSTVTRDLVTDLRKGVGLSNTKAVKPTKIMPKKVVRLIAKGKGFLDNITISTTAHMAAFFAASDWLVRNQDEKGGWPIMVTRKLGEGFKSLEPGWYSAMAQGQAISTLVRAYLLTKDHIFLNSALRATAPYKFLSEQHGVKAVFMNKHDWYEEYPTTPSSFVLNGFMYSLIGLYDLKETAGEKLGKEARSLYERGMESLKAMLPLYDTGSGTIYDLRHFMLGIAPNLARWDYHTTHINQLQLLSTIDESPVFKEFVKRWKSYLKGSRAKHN
# UniProt Q9BQQ3: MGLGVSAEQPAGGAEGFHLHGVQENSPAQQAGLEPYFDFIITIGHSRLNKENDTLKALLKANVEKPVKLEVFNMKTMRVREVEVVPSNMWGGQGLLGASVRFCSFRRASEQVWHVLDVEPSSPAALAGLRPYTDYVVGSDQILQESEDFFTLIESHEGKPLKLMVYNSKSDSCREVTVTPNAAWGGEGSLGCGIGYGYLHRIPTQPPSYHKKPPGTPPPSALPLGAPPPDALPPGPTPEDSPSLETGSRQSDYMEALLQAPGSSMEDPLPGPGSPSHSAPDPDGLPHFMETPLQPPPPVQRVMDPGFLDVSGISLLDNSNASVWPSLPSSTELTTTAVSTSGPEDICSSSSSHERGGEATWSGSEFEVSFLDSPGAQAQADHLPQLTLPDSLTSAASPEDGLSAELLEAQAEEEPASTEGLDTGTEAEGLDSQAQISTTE
# UniProt Q96CP6, whole entry, looked up: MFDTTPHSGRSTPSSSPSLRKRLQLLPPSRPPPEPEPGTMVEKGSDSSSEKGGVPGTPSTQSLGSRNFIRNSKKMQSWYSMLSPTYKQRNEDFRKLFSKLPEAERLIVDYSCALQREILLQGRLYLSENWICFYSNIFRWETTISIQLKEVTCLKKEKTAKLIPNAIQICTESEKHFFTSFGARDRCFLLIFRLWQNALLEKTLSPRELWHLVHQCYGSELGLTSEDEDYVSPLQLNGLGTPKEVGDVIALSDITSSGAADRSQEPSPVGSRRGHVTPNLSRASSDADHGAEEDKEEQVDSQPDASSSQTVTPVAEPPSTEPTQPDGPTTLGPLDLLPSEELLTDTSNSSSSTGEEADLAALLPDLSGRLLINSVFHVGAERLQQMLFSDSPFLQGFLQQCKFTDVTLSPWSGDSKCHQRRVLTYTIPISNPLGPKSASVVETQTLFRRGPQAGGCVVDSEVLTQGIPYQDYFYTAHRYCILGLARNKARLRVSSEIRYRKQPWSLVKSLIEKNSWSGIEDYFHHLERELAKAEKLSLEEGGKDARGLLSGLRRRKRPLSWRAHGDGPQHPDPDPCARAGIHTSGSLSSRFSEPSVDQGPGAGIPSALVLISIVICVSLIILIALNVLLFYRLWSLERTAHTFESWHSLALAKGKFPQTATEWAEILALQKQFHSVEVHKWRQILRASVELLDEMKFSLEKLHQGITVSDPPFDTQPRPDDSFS
# UniProt Q9HCL2: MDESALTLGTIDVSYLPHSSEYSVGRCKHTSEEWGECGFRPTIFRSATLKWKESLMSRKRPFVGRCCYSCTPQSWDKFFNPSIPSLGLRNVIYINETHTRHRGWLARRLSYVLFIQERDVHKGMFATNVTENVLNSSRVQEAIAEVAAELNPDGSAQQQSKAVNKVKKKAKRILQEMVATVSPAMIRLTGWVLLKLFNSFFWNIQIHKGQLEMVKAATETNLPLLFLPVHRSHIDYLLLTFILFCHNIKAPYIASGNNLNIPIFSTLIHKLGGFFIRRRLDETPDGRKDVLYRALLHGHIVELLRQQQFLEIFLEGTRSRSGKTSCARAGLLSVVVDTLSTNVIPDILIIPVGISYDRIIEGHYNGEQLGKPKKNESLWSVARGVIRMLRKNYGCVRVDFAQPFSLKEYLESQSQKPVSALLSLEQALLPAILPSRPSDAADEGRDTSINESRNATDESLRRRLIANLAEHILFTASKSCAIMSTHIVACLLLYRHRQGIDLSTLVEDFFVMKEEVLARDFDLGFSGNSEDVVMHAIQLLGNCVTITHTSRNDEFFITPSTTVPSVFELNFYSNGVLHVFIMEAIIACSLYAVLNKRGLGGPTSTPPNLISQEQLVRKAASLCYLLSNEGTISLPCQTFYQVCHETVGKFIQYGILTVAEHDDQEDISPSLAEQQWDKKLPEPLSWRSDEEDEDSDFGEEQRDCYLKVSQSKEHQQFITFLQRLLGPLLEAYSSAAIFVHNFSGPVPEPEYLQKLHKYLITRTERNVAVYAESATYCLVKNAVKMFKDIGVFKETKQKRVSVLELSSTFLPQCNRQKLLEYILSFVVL
# Some of the results follow. Residues, ends and D or L forms follow the SMILES beside them. *: point of attachment. Cbz = O=C(OCc1ccccc1)*
# Key:
# Assay in all cases: log2 fold change, soluble protein after heating vs DMSO (PISA); higher = thermal stabilisation; K562 cells, 10 uM, 30 min; active = over 0.2 and 3.5 SD of the protein, either way, in both replicates (recomputed)
# ibrutinib = compound: C=CC(=O)N1CCC[C@@H](n2nc(-c3ccc(Oc4ccccc4)cc3)c3c(N)ncnc32)C1 [ibrutinib]
# How it was run: (§1)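 Soluble protein was defined as the supernatant after 21,000xg for 90 min. It came from K562 cells at 2×10^6 cells/mL given 10 μM compound for 30 min, heated in aliquots for 3 min across 48°C-58°C, pooled, and extracted in PBS with 0.5% NP-40 at 4°C, and was quantified by TMTpro 16plex LC-MS/MS with equalised channel sums. Thermal stability against control samples, from duplicates, is reported as log2 fold change.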
# [1] = compound: CC(=O)c1cnc2ccc(-c3cc(Cl)c(O)c(Cl)c3)nc2c1N[C@H]1CC[C@H](CN(C)C)CC1
# How it was run: as §1
# ralimetinib = compound: CC(C)(C)Cn1c(N)nc2ccc(-c3[nH]c(C(C)(C)C)nc3-c3ccc(F)cc3)nc21 [ralimetinib]
# How it was run: as §1
# [2] = compound: CC(C)(O)CC(=O)NCCn1ccc2ncnc(Nc3ccc(Oc4cccc(C(F)(F)F)c4)c(Cl)c3)c21
# How it was run: as §1
# [3] = compound: CC(C)C1=C2N=C(C=C(N2N=C1)NCC3=CC=CC=C3)NCCCCCCN
# How it was run: as §1
# [4] = compound: CC(C)C[C@@H](C=O)NC(=O)[C@H](CC(C)C)NC(=O)[C@H](CC(C)C)NC(=O)OCc1ccccc1
# How it was run: as §1
# [5] = compound: CC1=C(C2=C(C=C1)C(=O)C3=CC=CC=C3N2CCCN)C
# How it was run: as §1
# [6] = compound: CC1=C(C=C(C=C1)NC(=O)C2=CC(=CC=C2)C(C)(C)C#N)NC3=CC4=C(C=C3)N=CN(C4=O)C
# How it was run: as §1
# [7] = compound: CC1=C(C=C(C=C1)NC(=O)C2=CC(=CC=C2)N(C)C)NC(=O)C3=CC=C(C=C3)O
# How it was run: as §1
# [8] = compound: CC1=CC=C(C=C1)SC2=C3C=C(SC3=CN=C2)C(=O)N
# How it was run: as §1
# Nexturastat A = compound: CCCCN(Cc1ccc(C(=O)NO)cc1)C(=O)Nc1ccccc1 [Nexturastat A]
# How it was run: as §1
# vemurafenib = compound: CCCS(=O)(=O)Nc1ccc(F)c(C(=O)c2c[nH]c3ncc(-c4ccc(Cl)cc4)cc23)c1F [vemurafenib]
# How it was run: as §1
# [9] = compound: CCCS(=O)(=O)Nc1ccc(F)c(C(=O)c2c[nH]c3ncc(Cl)cc23)c1F
# How it was run: as §1
# [10] = compound: CCCc1cc(C)[nH]c(=O)c1CNC(=O)c1cc(-c2ccnc(N3CCN(C)CC3)c2)cc2c1cnn2C(C)C
# How it was run: as §1
# givinostat = compound: CCN(CC)Cc1ccc2cc(COC(=O)Nc3ccc(C(=O)NO)cc3)ccc2c1 [givinostat]
# How it was run: as §1
# barasertib = compound: CCN(CCCOc1ccc2c(Nc3cc(CC(=O)Nc4cccc(F)c4)[nH]n3)ncnc2c1)CCOP(=O)(O)O [barasertib]
# How it was run: as §1
# [11] = compound: CC1=C(C(CC(=O)N1)C2=CC=C(C=C2)C(F)(F)F)C(=O)NC3=C(C=C4C(=C3)C=NN4)F
# How it was run: as §1
# IRAK-1-4 Inhibitor I = compound: C1COCCN1CCN2C3=CC=CC=C3N=C2NC(=O)C4=CC(=CC=C4)[N+](=O)[O-] [IRAK-1-4 Inhibitor I]
# How it was run: as §1
# pinometostat = compound: CC(C)N(C[C@H]1O[C@@H](n2cnc3c(N)ncnc32)[C@H](O)[C@@H]1O)[C@H]1C[C@@H](CCc2nc3cc(C(C)(C)C)ccc3[nH]2)C1 [pinometostat]
# How it was run: as §1
# [12] = compound: CC1=NC(=CC=C1)C2=C(N=C(N2)C(C)(C)C)C3=CC4=NC=CN=C4C=C3
# How it was run: as §1
target,measurement,setting,value
GPD1 (UniProt P21695),log2 fold change,ibrutinib,inactive: 0.059
same,log2 fold change,[1],inactive: -0.066
same,log2 fold change,ralimetinib,inactive: -0.141
same,log2 fold change,[2],inactive: 0.079
same,log2 fold change,[3],inactive: 0.268
same,log2 fold change,[4],inactive: -0.051
same,log2 fold change,[5],inactive: 0.009
same,log2 fold change,[6],inactive: 0.011
same,log2 fold change,[7],inactive: -0.046
same,log2 fold change,[8],inactive: 0.021
same,log2 fold change,Nexturastat A,active: 0.653
same,log2 fold change,vemurafenib,inactive: 0.02
same,log2 fold change,[9],inactive: -0.042
same,log2 fold change,[10],inactive: -0.34
same,log2 fold change,givinostat,inactive: 0.514
same,log2 fold change,barasertib,inactive: 0.062
GOLM1 (UniProt Q8NBJ4),log2 fold change,ibrutinib,inactive: 0.027
same,log2 fold change,ralimetinib,inactive: -0.111
same,log2 fold change,[3],inactive: 0.087
same,log2 fold change,[4],inactive: 0.122
same,log2 fold change,[11],inactive: 0.102
same,log2 fold change,[5],inactive: -0.13
same,log2 fold change,[6],inactive: -0.118
same,log2 fold change,[7],inactive: 0.142
same,log2 fold change,[8],inactive: 0.086
same,log2 fold change,vemurafenib,inactive: 0.045
same,log2 fold change,[9],inactive: -0.017
same,log2 fold change,[10],inactive: -0.311
same,log2 fold change,givinostat,inactive: 0.086
same,log2 fold change,barasertib,inactive: 0.144
GNL2 (UniProt Q13823),log2 fold change,ibrutinib,inactive: 0.297
same,log2 fold change,ralimetinib,inactive: -0.003
same,log2 fold change,[2],inactive: 0.092
same,log2 fold change,[4],inactive: 0.055
same,log2 fold change,[5],inactive: -0.009
same,log2 fold change,[7],inactive: 0.103
same,log2 fold change,Nexturastat A,inactive: 0.388
same,log2 fold change,[10],inactive: 0.118
same,log2 fold change,barasertib,inactive: 0.177
GPR68 (UniProt Q15743),log2 fold change,IRAK-1-4 Inhibitor I,inactive: -0.146
same,log2 fold change,[1],inactive: -0.135
same,log2 fold change,ralimetinib,inactive: -0.073
same,log2 fold change,[4],inactive: 0.141
same,log2 fold change,pinometostat,inactive: 0.134
same,log2 fold change,[7],inactive: -0.041
same,log2 fold change,[12],inactive: -0.063
GPATCH2L (UniProt Q9NWQ4),log2 fold change,[3],inactive: -0.39
same,log2 fold change,[5],inactive: -0.093
same,log2 fold change,givinostat,inactive: -0.144
GPCPD1 (UniProt Q9NPB8),log2 fold change,ralimetinib,inactive: 0.066
same,log2 fold change,[2],inactive: -0.107
same,log2 fold change,[4],inactive: -0.184
same,log2 fold change,[6],inactive: 0.039
same,log2 fold change,[7],inactive: 0.076
same,log2 fold change,[8],inactive: 0.054
same,log2 fold change,Nexturastat A,inactive: 0.288
same,log2 fold change,[9],inactive: 0.06
same,log2 fold change,[10],inactive: 0.05
GP6 isoform 3 (UniProt Q9HCN6),log2 fold change,IRAK-1-4 Inhibitor I,inactive: 0.135
same,log2 fold change,ibrutinib,inactive: 0.166
same,log2 fold change,[3],inactive: -0.14
same,log2 fold change,pinometostat,inactive: -0.176
same,log2 fold change,[12],inactive: 0.047
same,log2 fold change,[10],inactive: -0.082
same,log2 fold change,givinostat,inactive: 0
same,log2 fold change,barasertib,inactive: 0.071
GOLIM4 (UniProt F8W785),log2 fold change,IRAK-1-4 Inhibitor I,inactive: 0.087
same,log2 fold change,ibrutinib,inactive: -0.024
same,log2 fold change,[2],inactive: 0.06
same,log2 fold change,pinometostat,inactive: 0.019
same,log2 fold change,[11],inactive: -0.056
same,log2 fold change,[5],inactive: 0.003
same,log2 fold change,[6],inactive: 0.036
same,log2 fold change,[12],inactive: 0.013
same,log2 fold change,Nexturastat A,inactive: -0.092
same,log2 fold change,vemurafenib,inactive: -0.062
same,log2 fold change,barasertib,inactive: 0.07
GNL3 (UniProt Q9BVP2),log2 fold change,ibrutinib,inactive: 0.047
same,log2 fold change,[1],inactive: 0.012
same,log2 fold change,[2],inactive: -0.007
same,log2 fold change,[5],inactive: 0.066
same,log2 fold change,[6],inactive: 0.002
same,log2 fold change,Nexturastat A,active: 0.491
same,log2 fold change,vemurafenib,inactive: -0.12
same,log2 fold change,[10],inactive: -0.307
same,log2 fold change,barasertib,inactive: 0.079
GPI (UniProt P06744),log2 fold change,ibrutinib,inactive: -0.003
same,log2 fold change,[1],inactive: -0.039
same,log2 fold change,ralimetinib,inactive: -0.083
same,log2 fold change,[2],inactive: 0.016
same,log2 fold change,[3],inactive: 0.022
same,log2 fold change,[4],inactive: -0.029
same,log2 fold change,pinometostat,inactive: -0.043
same,log2 fold change,[11],inactive: -0.002
same,log2 fold change,[5],inactive: 0.001
same,log2 fold change,[6],inactive: 0.009
same,log2 fold change,[7],inactive: 0.004
same,log2 fold change,[8],inactive: 0.012
same,log2 fold change,[12],inactive: 0.011
same,log2 fold change,Nexturastat A,inactive: -0.106
same,log2 fold change,vemurafenib,inactive: 0.024
same,log2 fold change,[9],inactive: 0.004
same,log2 fold change,[10],inactive: -0.017
same,log2 fold change,givinostat,inactive: -0.005
same,log2 fold change,barasertib,inactive: 0.033
GORAB (UniProt Q5T7V8),log2 fold change,ibrutinib,inactive: -0.241
same,log2 fold change,ralimetinib,inactive: -0.208
same,log2 fold change,[3],inactive: -0.111
same,log2 fold change,[4],inactive: -0.222
same,log2 fold change,[11],inactive: 0.173
same,log2 fold change,[5],inactive: 0.143
same,log2 fold change,[6],inactive: -0.006
same,log2 fold change,[7],inactive: -0.029
same,log2 fold change,[8],inactive: 0.023
same,log2 fold change,vemurafenib,inactive: 0.07
same,log2 fold change,[9],inactive: 0.115
same,log2 fold change,givinostat,inactive: 0.096
same,log2 fold change,barasertib,inactive: 0.2
GLE1 (UniProt Q53GS7),log2 fold change,[1],inactive: 0.003
GLCE (UniProt O94923),log2 fold change,IRAK-1-4 Inhibitor I,inactive: 0.196
same,log2 fold change,ibrutinib,inactive: 0.021
same,log2 fold change,[3],inactive: -0.049
same,log2 fold change,pinometostat,inactive: 0.038
same,log2 fold change,[11],inactive: -0.221
same,log2 fold change,[6],inactive: -0.024
same,log2 fold change,[8],inactive: 0.099
same,log2 fold change,[12],inactive: 0.018
same,log2 fold change,[9],inactive: -0.034
same,log2 fold change,givinostat,inactive: -0.069
same,log2 fold change,barasertib,inactive: 0.05
GPATCH1 (UniProt Q9BRR8),log2 fold change,[2],inactive: -0.041
same,log2 fold change,[3],inactive: -0.101
same,log2 fold change,[5],inactive: 0.058
same,log2 fold change,[6],inactive: -0.171
same,log2 fold change,[8],inactive: -0.045
same,log2 fold change,Nexturastat A,inactive: -0.013
same,log2 fold change,vemurafenib,inactive: -0.059
same,log2 fold change,[9],inactive: -0.06
same,log2 fold change,givinostat,inactive: -0.187
GORASP1 (UniProt Q9BQQ3),log2 fold change,[2],inactive: 0
same,log2 fold change,[8],inactive: 0.08
same,log2 fold change,Nexturastat A,inactive: 0.224
same,log2 fold change,[9],inactive: 0.059
GRAMD1A (UniProt Q96CP6),log2 fold change,ibrutinib,inactive: -0.251
same,log2 fold change,[2],inactive: 0.011
same,log2 fold change,Nexturastat A,inactive: 0.115
same,log2 fold change,barasertib,inactive: 0.037
GPAM (UniProt Q9HCL2),log2 fold change,IRAK-1-4 Inhibitor I,inactive: 0.229
same,log2 fold change,[1],inactive: -0.176
same,log2 fold change,ralimetinib,inactive: 0.136
same,log2 fold change,[2],inactive: 0.059
same,log2 fold change,[3],inactive: -0.074
same,log2 fold change,[4],inactive: 0.121
same,log2 fold change,pinometostat,inactive: -0.285
same,log2 fold change,[11],inactive: -0.037
same,log2 fold change,[5],inactive: -0.032
same,log2 fold change,[6],inactive: -0.113
same,log2 fold change,[7],inactive: -0.015
same,log2 fold change,[8],inactive: -0.069
same,log2 fold change,[12],inactive: -0.259
same,log2 fold change,Nexturastat A,inactive: -0.08
same,log2 fold change,[9],inactive: 0.041
same,log2 fold change,givinostat,inactive: 0.035

# Some of the entries so far, as tab-separated lines:
target	measurement	setting	value
GPR68 (UniProt Q15743)	log2 fold change	[7]	inactive: -0.041
GRAMD1A (UniProt Q96CP6)	log2 fold change	barasertib	inactive: 0.037
GPAM (UniProt Q9HCL2)	log2 fold change	Nexturastat A	inactive: -0.08

# Rewritten with tabs: part of the list above
target	measurement	setting	value
GPI (UniProt P06744)	log2 fold change	[12]	inactive: 0.011
same	log2 fold change	Nexturastat A	inactive: -0.106
same	log2 fold change	vemurafenib	inactive: 0.024
same	log2 fold change	[9]	inactive: 0.004
same	log2 fold change	[10]	inactive: -0.017
